According to PubChem BioAssay AID1671190 (National Center for Advancing Translational Sciences (NCATS), 2021):
“And” between values parts separate entries of the source, which are not always exact repeats. Identical values can stand only once. About 6,100 (1.1%) of roughly 580,000 compounds were called active. Inconclusive means that the source gave no clear call. Such entries were picked first, then a sample of the others. The call rests on the fitted dose curve; in most records, active means well fitted inhibition curve with a large enough effect; inconclusive means small, poorly fitted or top-dose-only effect, or another doubt; inactive means no such curve, though single readings can be large or run the other way. A potency beside an inconclusive call is a rough fit, not a confirmed value.
On the % scale 0 is the no-effect control and ±100 the full control effect; potency means the concentration at half of the fitted maximal effect.

Chains of the proteins cited; added tags and fusions are not shown.
UniProt P18054, whole entry, looked up: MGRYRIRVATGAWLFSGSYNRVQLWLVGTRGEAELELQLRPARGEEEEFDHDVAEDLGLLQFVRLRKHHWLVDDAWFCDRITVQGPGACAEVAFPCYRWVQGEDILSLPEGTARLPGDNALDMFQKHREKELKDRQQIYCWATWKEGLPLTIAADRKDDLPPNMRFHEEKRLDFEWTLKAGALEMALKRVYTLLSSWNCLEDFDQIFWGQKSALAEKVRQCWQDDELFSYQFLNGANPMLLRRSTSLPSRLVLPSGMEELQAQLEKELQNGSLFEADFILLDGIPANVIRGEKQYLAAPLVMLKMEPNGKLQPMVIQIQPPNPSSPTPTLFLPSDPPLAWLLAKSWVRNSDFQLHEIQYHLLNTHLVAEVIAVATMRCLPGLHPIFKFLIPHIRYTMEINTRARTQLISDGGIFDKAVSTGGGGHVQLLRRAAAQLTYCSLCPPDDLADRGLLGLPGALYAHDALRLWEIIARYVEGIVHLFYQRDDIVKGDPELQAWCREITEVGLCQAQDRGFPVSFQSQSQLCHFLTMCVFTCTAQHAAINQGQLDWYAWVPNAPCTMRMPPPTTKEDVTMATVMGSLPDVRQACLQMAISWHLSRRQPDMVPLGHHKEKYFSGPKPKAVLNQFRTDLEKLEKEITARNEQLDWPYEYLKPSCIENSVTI

Each compound was assayed against Polyunsaturated fatty acid lipoxygenase ALOX12 (Homo sapiens) (UniProt P18054) (assay: Primary qHTS assay for inhibitors of human arachidonate 12S-lipoxygenase (ALOX12): Round 2). Details: purified 12hLO, xylenol orange hydroperoxide absorbance; activity change, negative = inhibition: at 108 µM (top of the series) unless noted.
Method in brief: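 Purified human 12hLO at 150 nM in 25 mM Hepes, 0.01% Triton X-100, pH 7.0, preincubated 15 min at room temperature with compound. Reaction started with 40 uM arachidonic acid, 30 min at room temperature. Hydroperoxide measured by Fe-xylenol orange, 573/405 nm absorbance ratio.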
For `CCN(CC)S(=O)(=O)c1ccc(N2CCCC2)c(NS(=O)(=O)c2ccccc2)c1`, the Potency was “inactive and inconclusive: 44.7 µM [inhibitor, partial curve, poor fit]”. In the case of `O=CN1CCN(C(C(=O)O)c2c[nH]c3cc(OCc4ccccc4)ccc23)CC1` (configuration not stated), the Potency is reported as inconclusive: 14.1 µM [inhibitor, full curve, poor fit]. For `COc1cccc(Nc2nc(C(N)CCc3ccccc3)cs2)n1` (configuration not stated), the Potency was inconclusive: 44.7 µM [inhibitor, partial curve, poor fit]. With `CCCCC(=O)NC(NC(=O)CCCC)c1ccc(OCC(C)C)c(OC)c1` the Potency was inconclusive: 5.62 µM [inhibitor, full curve, poor fit]. With `Nc1c(Cl)cc2c(c1Oc1ccccc1)C(=O)c1ccccc1C2=O` the Potency was “inactive”. For `O=C(CCn1ccc2cc(S(=O)(=O)N3CCCCC3)ccc21)NCCN1CCCCCC1`, the Potency was inconclusive: 56.2 µM [inhibitor, partial curve, poor fit]. In the case of `N#CC1=C(S)N(c2ccccc2)C(c2ccc(-c3ccccc3Cl)o2)NC1=O` (configuration not stated), the Potency is reported as inconclusive: 50.1 µM [inhibitor, partial curve, poor fit]. For `COc1cc2c(cc1OC)CN(Cc1nc3ccsc3c(=O)[nH]1)CC2`, the Potency was inconclusive: 25.1 µM [inhibitor, partial curve, poor fit]. With `Cc1cccc2c1-c1sc(C(=O)NCCCN3CCN(c4cccc(Cl)c4)CC3)cc1CO2` the Potency was inconclusive: 28.2 µM [inhibitor, partial curve, poor fit]. For `COc1cccc(C(=O)Nc2sc3c(c2C(N)=O)CCCC3)c1OC(F)F`, the Potency was inconclusive: 50.1 µM [inhibitor, partial curve, poor fit]. With `Cc1cccc(CNc2ccnc(-c3ccccc3Cl)n2)c1` the Potency was inconclusive: 50.1 µM [inhibitor, partial curve, poor fit]. In the case of `CCOC(=O)N1CCc2c(sc(NCc3cccs3)c2C(=O)Nc2cc(OC)ccc2OC)C1`, the Potency is reported as inconclusive: 50.1 µM [inhibitor, partial curve, poor fit]. `O=C1NC(c2ccc(Br)cc2)Nc2ccccc21` (configuration not stated) was tested, and the Potency was inconclusive: 35.5 µM [inhibitor, partial curve]. `CCOc1ccc(N(CC(=O)Nc2ccc(C)c(C)c2)S(=O)(=O)c2c(C)noc2C)cc1` was tested, and the Potency was “inactive”. For `COCc1nc(C2CCN(C(=O)c3cccnc3)C2)no1` (configuration not stated), the Potency was “inactive”. For `O=C(NCc1ccc2c(c1)OCO2)c1ccc(Br)cc1`, the Potency was “inactive”. In the case of `COc1ccc(Cc2c(C3CCCCC3)nc3cc(C)c(Br)c(C)n23)c(C)c1`, the Potency is reported as inconclusive: 112 µM [inhibitor, single point]. For `CSc1ccc(NC(=O)Nc2ccc(C(=O)NCC(=O)O)cc2)cc1`, the Potency was inconclusive: 89.1 µM [inhibitor, partial curve, poor fit]. With `CCCn1cc2c3c(cccc31)CN(C(=O)COc1ccc(F)cc1)CC2` the Potency was inconclusive: 3.55 µM [inhibitor, full curve, poor fit]. For `Cc1ccc(Nc2nc(-c3ccncc3)nc3ccccc23)cc1`, the Potency was “inactive”. `Cc1cc(N2CCOC(C(F)(F)F)C2)nc(-c2ccccc2)n1` (configuration not stated) was tested, and the Potency was “inactive”. For `Cc1cc(C)c(Nc2cc(S(=O)(=O)O)c(N)c3c2C(=O)c2ccccc2C3=O)c(C)c1`, the Potency was inconclusive: 31.6 µM [inhibitor, partial curve, poor fit]. `Cc1ccc(N2CC(C(=O)Nc3cc(S(=O)(=O)N4CCCCC4)ccc3C)CC2=O)cc1` (configuration not stated) was tested, and the Potency was inconclusive: 50.1 µM [inhibitor, partial curve, poor fit]. With `Cc1cc(C(=O)N2CCOCC2)c2c(C3CCCN3)noc2n1` (configuration not stated) the activity change, negative = inhibition was inactive: 6.11% [at 6.33 µM]. In the case of `Cc1c(CN2CCN(Cc3cccs3)C(CCO)C2)cnn1C` (configuration not stated), the Potency is reported as “inactive”. `CCN(CC)C(=O)CSc1nnc2[nH]c(=O)cc(C)n12` was tested, and the Potency was inconclusive: 56.2 µM [inhibitor, partial curve, poor fit]. For `CCOc1cc(N2CCOCC2)c(OCC)cc1NC(=O)c1ccc2ccccc2n1`, the Potency was inconclusive: 1.58 µM [inhibitor, full curve, poor fit]. With `Cc1ccccc1OCCNC(=O)c1ccco1` the Potency was “inactive”. With `CCN(C(=O)c1ccc(=O)[nH]c1)c1c(N)n(Cc2ccccc2)c(=O)[nH]c1=O` the Potency was “inactive”. `COc1ccc(Cl)cc1N(CC(=O)N1CCCC1)S(=O)(=O)c1ccc(C)cc1` was tested, and the Potency was “inactive”. `O=S(=O)(NCC(c1ccco1)N1CCc2ccccc21)c1ccccc1` (configuration not stated) was tested, and the Potency was inconclusive: 50.1 µM [inhibitor, partial curve, poor fit]. `CCCN(C(=O)COC(=O)CCC(=O)c1ccccc1)c1c(N)n(Cc2ccccc2)c(=O)[nH]c1=O` was tested, and the Potency was inconclusive: 50.1 µM [inhibitor, single point]. In the case of `Cc1ccc(C(=O)Nc2cccc(S(=O)(=O)N3CCCC3)c2)o1`, the Potency is reported as “inactive”. `Cc1ccc2nc(NCCCO)nc(-c3ccccc3)c2c1` was tested, and the Potency was inconclusive: 44.7 µM [inhibitor, partial curve, poor fit]. With `N#Cc1c(-c2cccc(Br)c2)cc(-c2ccco2)[nH]c1=O` the Potency was active: 17.8 µM. In the case of `Cc1cc(C)c2c(C(=O)N(C)Cc3nc(C)no3)cc(C)nc2c1`, the Potency is reported as “inactive”. `Nc1cccc(C#Cc2ccccc2)c1` was tested, and the Potency was inconclusive: 141 µM [inhibitor, single point]. For `C#CCNC(=O)c1nc(-c2c(C)cccc2C)c2ccccn12`, the Potency was “inactive”. In the case of `COc1ccc(C(=O)OCC(=O)NC(C)CCc2ccccc2)cc1OC` (configuration not stated), the Potency is reported as “inactive”. In the case of `COC(=O)C1=C(C(=O)OC)[C@@H]2N(Cc3ccccc3)c3ccccc3[C@@]23C[C@@H](C(=O)OC)N(C(C)=O)C3=N1`, the Potency is reported as inconclusive: 141 µM [inhibitor, partial curve, poor fit]. In the case of `O=C(Cc1ccsc1)N1CCCC(Cc2nc(C3CCOCC3)no2)C1` (configuration not stated), the Potency is reported as inconclusive: 14.1 µM [inhibitor, partial curve, poor fit]. `CCCc1noc(-c2ccn3c(CNC(=O)c4cc(Cl)ccc4F)nnc3c2)n1` was tested, and the Potency was inconclusive: 56.2 µM [inhibitor, partial curve, poor fit].
